Laboratory results reported in PubChem BioAssay AID504327 (National Center for Advancing Translational Sciences (NCATS), 2011).
Values joined by “and” are separate entries in the source; they are usually repeats but may differ in a detail not shown here. Equal entries are not always repeated. The whole screen tested about 390,000 compounds, of which about 820 (0.21%) were called active. The inconclusive results got no clear call from the source; some entries with a clear call stand among them for comparison. The call rests on the fitted dose curve; in most records, active means well fitted inhibition curve with a large enough effect; inconclusive means small, poorly fitted or top-dose-only effect, or another doubt; inactive means no such curve, though single readings can be large or run the other way. Where the call is inconclusive, the potency comes from a doubtful curve fit.

Chains of the proteins cited; added tags and fusions are not shown.
UniProt Q92830, whole entry, looked up: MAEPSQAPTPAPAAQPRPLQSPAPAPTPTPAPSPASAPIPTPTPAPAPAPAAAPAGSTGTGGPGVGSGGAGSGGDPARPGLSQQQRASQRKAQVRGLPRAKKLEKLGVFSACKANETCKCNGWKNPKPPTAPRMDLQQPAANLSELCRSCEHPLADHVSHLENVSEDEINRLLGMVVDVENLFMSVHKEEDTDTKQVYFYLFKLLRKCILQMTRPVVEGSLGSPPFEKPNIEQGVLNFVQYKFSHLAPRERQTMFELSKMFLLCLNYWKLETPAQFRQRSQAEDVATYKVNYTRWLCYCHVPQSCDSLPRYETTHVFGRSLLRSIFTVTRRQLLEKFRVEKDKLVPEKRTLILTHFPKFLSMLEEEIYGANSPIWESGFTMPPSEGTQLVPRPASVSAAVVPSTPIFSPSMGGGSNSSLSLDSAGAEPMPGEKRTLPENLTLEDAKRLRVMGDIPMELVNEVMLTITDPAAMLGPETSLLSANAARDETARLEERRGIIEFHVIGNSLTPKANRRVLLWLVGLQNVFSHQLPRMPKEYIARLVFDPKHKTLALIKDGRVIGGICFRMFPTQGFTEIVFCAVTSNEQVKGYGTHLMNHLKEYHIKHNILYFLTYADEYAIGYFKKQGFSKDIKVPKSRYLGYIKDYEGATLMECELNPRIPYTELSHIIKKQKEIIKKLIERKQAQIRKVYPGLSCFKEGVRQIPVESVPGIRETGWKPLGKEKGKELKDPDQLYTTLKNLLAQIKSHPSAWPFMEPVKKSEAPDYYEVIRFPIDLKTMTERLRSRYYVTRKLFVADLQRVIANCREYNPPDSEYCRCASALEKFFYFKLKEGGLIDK

Target: Histone acetyltransferase KAT2A (Homo sapiens) (UniProt Q92830)
Assay: qHTS Assay for Inhibitors of GCN5L2
Details: GCN5L2 HAT assay, ThioGlo1 CoA-SH fluorescence; activity change, negative = inhibition: at 58.9 µM (top of the series) unless noted
Summary of the method: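 Compounds, pin-transferred from DMSO stocks, meet 20nM GCN5L2 for 15 min before the reaction begins with H3(1-25) peptide (75uM) and acetyl-CoA (70uM). Thiol-reactive ThioGlo1 reports CoA release over 20 min at room temperature.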
On the % scale 0 is the no-effect control and ±100 the full control effect; potency means the concentration at half of the fitted maximal effect.

SMILES	Potency	activity change, negative = inhibition
Cc1ccc(-c2csc(NC(=O)CN3CCC(C(N)=O)CC3)n2)cc1	inconclusive: 2 µM [inhibitor, partial curve]	
COc1ccc(N2CCN(Cc3nc(N)nc(Nc4ccc(C)c(Cl)c4)n3)CC2)cc1		inactive: -8.53%
CCCCc1ccc(S(=O)(=O)Nc2cc(C)on2)cc1	inconclusive: 0.141 µM [inhibitor, full curve, poor fit]	
CCOC(=O)C1CCN(C(=O)CCc2nnc3ccc(NCc4ccco4)nn23)CC1	inconclusive: 0.0891 µM [inhibitor, full curve, poor fit]	
CC(C(=O)N1CCN(c2ccccc2F)CC1)c1ccc([N+](=O)[O-])cc1 (stereo not drawn)	inconclusive: 0.562 µM [inhibitor, full curve, poor fit]	
COc1ccccc1C1CC(=O)Oc2cc(C)c(Cl)c(C)c21 (stereo not drawn)	inconclusive: 50.1 µM [inhibitor, single point]	
CCc1ccc(C(=O)COC(=O)c2nn(C)c(=O)c3ccccc23)cc1	inconclusive: 0.631 µM [inhibitor, single point]	
O=C(c1cc(F)c(F)cc1Cl)N1CCN(S(=O)(=O)c2cccs2)CC1	inconclusive: 31.6 µM [inhibitor, single point]	
CCc1nc2oc3ccccc3c(=O)c2c(=O)n1Cc1ccccc1		inactive: -2.68%
O=C(Nc1ccc(S(=O)(=O)N2CCCC2)cc1)c1ccc(CN2CCc3ccccc3C2)cc1	inconclusive: 0.708 µM [inhibitor, full curve, poor fit]	
Cc1ccc(CNC(=O)c2ccccc2NS(=O)(=O)c2ccc(Cl)nc2)cc1	inconclusive: 0.708 µM [inhibitor, full curve]	
CC(C)(C)NC(=S)NCc1cccnc1	inconclusive: 39.8 µM [inhibitor, single point]	
O=C(c1ccccn1)N1N=C2/C(=C/c3ccc(F)cc3)CCCC2C1c1ccc(F)cc1 (stereo not drawn)		inactive: -8.37%
O=C(CNC(=O)c1cccs1)NCC(=O)OCc1ccccc1Cl	active: 3.16 µM	
Cc1ccc2nc(-c3cc(NC(=O)/C=C/c4ccccc4)ccc3Cl)oc2c1		inactive: 1.63%
O=C(CC1c2ccccc2Oc2ccccc21)N1CCN(c2ccccn2)CC1	inconclusive: 10 µM [inhibitor, partial curve, poor fit]	
N/C(=N\OC(=O)COc1ccc(Cl)cc1Cl)c1ccccn1		inactive: -12.2%
CC(=O)N1CCc2cc(S(=O)(=O)NCCCN3CCCCC3)ccc21	inconclusive: 39.8 µM [inhibitor, single point]	
COc1cc(C(=O)NS(=O)(=O)c2ccccc2C)ccc1Cc1cn(C)c2ccc(NC(=O)OC3CCCC3)cc12	active: 22.4 µM and active: 7.08 µM	
Cc1ccc(C(=O)CSc2nc3ccccc3o2)cc1		inactive: -8.24%
O=C1NC(=S)N/C1=C/c1ccc(-c2c(Br)cc([N+](=O)[O-])cc2Br)o1	inconclusive: 39.8 µM [inhibitor, partial curve]	
CN(C)c1cccc2c1c(NC(=O)c1ccc(Cl)cc1)nn2C	inconclusive: 0.631 µM [inhibitor, full curve]	
COc1ccc(-n2nc3c(c2NC(=O)CCCl)CSC3)cc1	inconclusive: 39.8 µM [inhibitor, single point]	

Four records drawn at random from the list so far:
SMILES	Potency	activity change, negative = inhibition
CC(C)(C)NC(=S)NCc1cccnc1	inconclusive: 39.8 µM [inhibitor, single point]	
Cc1ccc(CNC(=O)c2ccccc2NS(=O)(=O)c2ccc(Cl)nc2)cc1	inconclusive: 0.708 µM [inhibitor, full curve]	
O=C(c1ccccn1)N1N=C2/C(=C/c3ccc(F)cc3)CCCC2C1c1ccc(F)cc1 (stereo not drawn)		inactive: -8.37%
O=C(CC1c2ccccc2Oc2ccccc21)N1CCN(c2ccccn2)CC1	inconclusive: 10 µM [inhibitor, partial curve, poor fit]	

Additional results.

SMILES	Potency	activity change, negative = inhibition
COC(=O)CNC(=O)c1ccc(NS(=O)(=O)c2cc([N+](=O)[O-])ccc2Cl)cc1		inactive: -4.98%
O=C(Cn1cc2c(n1)CCCC2)NCc1ccccn1	inconclusive: 39.8 µM [inhibitor, single point]	
Cc1cc(C)c2nc(NNC(=O)c3cc(=O)c4ccccc4o3)sc2c1		inactive: -8.52%
Cc1ccccc1CN1CCNC(=O)C1CC(=O)NCCC1=CCCCC1 (stereo not drawn)	inconclusive: 7.08 µM [inhibitor, single point]	
Cc1ccc(CN2C(=O)N/C(=C\c3cccn3-c3cccc(C(=O)O)c3)C2=O)cc1	inconclusive: 39.8 µM [inhibitor, single point]	
COc1ccc(-c2cn3c(C)c(C(=O)Nc4cccc(C)n4)sc3n2)cc1		inactive: -6.44%
CCC(CC)c1nnc(NC(=O)c2ccc3c(c2)OCO3)s1		inactive: -14%
Cc1cc(C2CCCCC2)n(O)c(=O)c1	inconclusive: 17.8 µM [inhibitor, single point]	
C=C1C(=O)[C@]23[C@H](O)[C@H]1CC[C@H]2[C@@]12COC3(O)[C@H](O)[C@@H]1C(C)(C)CC[C@@H]2O		inactive: 0.569%
Cc1cccc(NC(=O)c2ccc(-n3cccn3)c([N+](=O)[O-])c2)c1		inactive: 0.619%
S=C1SCN(Cc2ccccc2)CN1Cc1ccccc1	inconclusive: 35.5 µM [inhibitor, single point]	
O=C(Nc1ccc(C(=O)Nc2ccc(C(=O)Nc3ccc(S(=O)(=O)O)c4cc(S(=O)(=O)O)cc(S(=O)(=O)O)c34)cc2)cc1)Nc1ccc(C(=O)Nc2ccc(C(=O)Nc3ccc(S(=O)(=O)O)c4cc(S(=O)(=O)O)cc(S(=O)(=O)O)c34)cc2)cc1	inconclusive: 15.8 µM [inhibitor, partial curve]	
O=c1c2c3c(sc2n(CCN2CCCCC2)c(=O)n1Cc1ccco1)CCCCC3		inactive: -3.05%
Cc1cnc(CN(C)C(=O)CC2C(=O)NCCN2Cc2cccc(F)c2F)[nH]1 (stereo not drawn)	inconclusive: 0.282 µM [inhibitor, full curve, poor fit]	
CCOC(=O)c1ccc(-n2c(C)nc3c(cnn3-c3ccc(Cl)cc3)c2=O)cc1	inactive	
Cc1occc1-c1nnc(SCC(=O)N2CCCc3ccccc32)n1Cc1ccco1	inconclusive: 31.6 µM [inhibitor, single point]	
CCCCC(=O)NC(c1ccccc1Cl)c1c(O)ccc2ccccc12 (stereo not drawn)		inactive: -8.1%
Cn1nc(C(=O)N2CCC(C(N)=O)CC2)c2c1-c1ccccc1SC2		inactive: -3.53%
N#Cc1c(-c2cccc(F)c2)cc(-c2ccccc2)nc1Br	inconclusive: 31.6 µM [inhibitor, single point]	
Cc1ccccc1/C=C/c1cc[n+](C)cc1	inconclusive: 39.8 µM [inhibitor, single point]	
Cc1ccc(C(=O)Oc2ccc(/C=C3\C(=N)N4N=C(N5CCOCC5)SC4=NC3=O)cc2)cc1	inconclusive: 25.1 µM [inhibitor, single point]	
Cn1c(NCCO)nc2c1c(=O)n(Cc1cccc(F)c1)c(=O)n2C		inactive: -9.07%
Cc1c(Cl)cccc1NC(=O)COC(=O)CN1C(=O)NC(C)(C)C1=O	inconclusive: 39.8 µM [inhibitor, single point]	

SMILES	Potency	activity change, negative = inhibition
Cc1c(C)c2c(OCC(=O)N3CCC(C(N)=O)CC3)cc3c(c2oc1=O)CCC(C)(C)O3	inconclusive: 22.4 µM [inhibitor, single point]	
Cc1ccc(NC(=S)N(Cc2ccc(Cl)cc2)Cc2ccc(C(=O)O)cc2)cc1Cl	inconclusive: 39.8 µM [inhibitor, single point]	
Cc1c(C(=O)N2CCCC2)c(S(=O)(=O)N2CCCCC2)c(C)n1C	inconclusive: 8.91 µM [inhibitor, single point]	
O=C(CCN(CCO)Cc1ccccc1)Nc1ccc(Br)cc1		inactive: -5.66%
Cc1ccc(/C=N/Nc2nc(C(C)(C)C)cs2)o1		inactive: -4.59%
Cc1ccc(CCNC(=O)c2ccc(CS(=O)(=O)c3ccc(Cl)cc3)o2)cc1	inconclusive: 7.08 µM [inhibitor, single point]	
Cc1ccc2c(c1)N(C(=O)CCC(=O)NCc1cccnc1)CCO2	inconclusive: 20 µM [inhibitor, partial curve]	
COc1ccc(-c2cccc(NC(=O)c3ccco3)c2)nn1	inconclusive: 39.8 µM [inhibitor, single point]	
CCOC(=O)c1sc(=S)n(-c2ccc3c(c2)OCO3)c1N	inconclusive: 22.4 µM [inhibitor, partial curve]	
Cn1c(=O)c(-c2cccs2)nc2cnc(Oc3ccccc3)nc21	inconclusive: 25.1 µM [inhibitor, partial curve]	
Cc1ccc(S(=O)(=O)N2c3cc(C)ccc3OCC2C(C)(C)C)cc1 (stereo not drawn)	inconclusive: 7.94 µM [inhibitor, full curve, poor fit]	
C/C(=N\NC(=O)c1cc(O)cc(O)c1)c1ccc(NC(=O)Cc2ccccc2)cc1	inconclusive: 35.5 µM [inhibitor, single point]	
CCOC(=O)C1(Cc2ccccc2C)CCCN(C(=O)CCc2cccnc2)C1 (stereo not drawn)	inconclusive: 39.8 µM [inhibitor, single point]	
CN(CCCCCCN(C)Cc1ccccc1O)Cc1ccccc1O	inconclusive: 39.8 µM [inhibitor, single point]	
NC(=O)C12CCCC(Br)(CCC1)C2		inactive: 0.823%
CCCOc1cccc(C2C(C(=O)c3cccs3)=C(O)C(=O)N2Cc2cccnc2)c1 (stereo not drawn)	inconclusive: 0.708 µM [inhibitor, single point]	
Cc1c(C)c(C)c2[nH]c(-c3ccc4c(c3)OCO4)nc2c1C	inconclusive: 35.5 µM [inhibitor, single point]	
Cc1ccc(NC(=O)c2noc3c2CCC3)cc1C	inconclusive: 28.2 µM [inhibitor, single point]	
CS(=O)(=O)N1CCN(c2ccc([N+](=O)[O-])c(NCc3ccccc3)c2)CC1		inactive: -19%
O=C(N/N=C/c1ccco1)c1ccc(NC(=O)c2ccc(Cl)cc2)cc1		inactive: -0.895%
O=C(CSc1ccsc1[N+](=O)[O-])Nc1cc(F)ccc1F	inconclusive: 31.6 µM [inhibitor, partial curve]	
CC12CCC3c4ccc(O)cc4CCC3C1CCC2O (stereo not drawn)	inconclusive: 11.2 µM [inhibitor, full curve, poor fit]	
